Laboratory results as given in patent publication US5508269A, “Aminoglycoside formulation for aerosolization” (priority 1994, dated 1996).
At least one read-out could not be matched to a standard name with certainty.

Type: in vivo, CF patients
Details: 300 mg in 5 ml of 60 mg/ml in 1/4 NS
Excerpt: The doses were separated by at least 2 days and not more than 5 days.

Question: For `NC[C@H]1O[C@H](O[C@H]2[C@H](O)[C@@H](O[C@H]3O[C@H](CO)[C@@H](O)[C@H](N)[C@H]3O)[C@H](N)C[C@@H]2N)[C@H](N)C[C@@H]1O` [tobramycin], which serum concentrations is on record?
Answer: < 1600 ng/mL
